No constants are given. Whether binding was seen depends on the method and setting. In cells and extracts the contact can be indirect. Some results given as binding are weak or reduced against the parent protein; the word gives no strength.
Biological target: CIN85 (Cbl-interacting protein of 85 kDa), endogenous mouse protein (mouse (endogenous in RMA and IG10 cells and in mouse colon tissue)) (UniProt Q8R550)
Assay: co-IP; whole cell lysates (RIPA buffer, 500 ug protein) of RMA/MUC1, IG10/MUC1 or Caco-2 cells precipitated with anti-CIN85 antibody or control IgG (16 h, 4 °C, protein G-Sepharose); washes with RIPA containing 0.5 M NaCl, 2% SDS; immunoblotted with anti-MUC1 VU 4H5 and anti-Cbl

By UniProt entry, the sequences of proteins in these tests, tags left out.
UniProt Q8R550: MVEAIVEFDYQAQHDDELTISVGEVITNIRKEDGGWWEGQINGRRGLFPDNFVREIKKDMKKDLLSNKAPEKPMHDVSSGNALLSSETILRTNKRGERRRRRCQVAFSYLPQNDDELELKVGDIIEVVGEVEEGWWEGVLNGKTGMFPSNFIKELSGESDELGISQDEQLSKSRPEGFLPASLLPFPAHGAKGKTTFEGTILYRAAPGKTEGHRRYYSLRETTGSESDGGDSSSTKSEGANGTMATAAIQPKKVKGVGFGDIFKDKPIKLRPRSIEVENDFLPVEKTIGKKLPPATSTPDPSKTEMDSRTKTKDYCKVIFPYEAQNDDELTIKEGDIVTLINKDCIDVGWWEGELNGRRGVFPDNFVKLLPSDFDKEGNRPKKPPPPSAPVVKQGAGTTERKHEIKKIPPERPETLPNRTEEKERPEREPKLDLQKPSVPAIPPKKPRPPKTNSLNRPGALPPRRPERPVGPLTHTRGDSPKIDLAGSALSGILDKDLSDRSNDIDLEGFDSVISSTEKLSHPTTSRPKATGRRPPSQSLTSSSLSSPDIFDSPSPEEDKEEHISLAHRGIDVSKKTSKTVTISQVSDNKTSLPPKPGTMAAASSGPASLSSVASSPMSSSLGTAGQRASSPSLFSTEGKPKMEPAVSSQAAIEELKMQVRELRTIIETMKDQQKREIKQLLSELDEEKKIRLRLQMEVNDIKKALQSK

- binding: binds
Substance: Cbl (c-Cbl, Casitas B-lineage lymphoma), endogenous mouse protein (from UniProt P22682 1-913)

— publication PMC4381262
